Test results as given in US9826741B2, “Tetrazolinone compound and application thereof” (SUMITOMO CHEMICAL COMPANY, LIMITED, priority 2014, dated 2017).
Some results were stated once for a whole list of compounds, not compound by compound.

Tests used:
Format in all cases: in vivo
[1] = tested on: wheat leaf blotch fungus (Septoria tritici); test: Test Example 7: wheat leaf blotch, foliar spray, preventive; conditions: 200 ppm foliar spray on wheat (APOGEE); inoculated after 4 days; assessed after 3 days high humidity + 14 to 18 days illumination
[2] = tested on: cucumber anthracnose fungus (Colletotrichum lagenarium); test: Test Example 4: cucumber anthracnose, foliar spray, preventive; conditions: 200 ppm foliar spray on cucumber (SAGAMI HANJIRO); inoculated after 1 day; assessed after 1 day high humidity + 6 days
[3] = tested on: barley leaf blotch fungus (Rhynchosporium secalis); test: Test Example 6: barley leaf blotch, foliar spray, preventive; conditions: 200 ppm foliar spray on barley (NISHINOHOSHI); inoculated after 2 days; assessed after 3 days high humidity + 7 days
[4] = tested on: cotton aphid (Aphis gossypii); test: Test Example 10: cotton aphid on cucumber seedlings, spray; conditions: 500 ppm dilution of Formulation Example 6, 20 mL sprayed on cucumber seedlings; counted after 6 days
[5] = tested on: cucumber target leaf spot fungus (Corynespora cassiicola); test: Test Example 2: cucumber target leaf spot, foliar spray, preventive; conditions: 200 ppm foliar spray on cucumber (SAGAMI HANJIRO); inoculated after 1 day; assessed after 7 days
[6] = tested on: barley net blotch fungus (Pyrenophora teres); test: Test Example 1: barley net blotch, foliar spray, preventive; conditions: 200 ppm foliar spray on barley (NISHINOHOSHI); inoculated after 2 days; assessed after 3 days high humidity + 7 days greenhouse
[7] = tested on: soybean rust fungus (Phakopsora pachyrhizi); test: Test Example 5: soybean rust, foliar spray, preventive; conditions: 200 ppm foliar spray on soybean (KUROSENGOKU); inoculated after 2 days; assessed after 3 days high humidity + 14 days

Compound	area of lesion on the treated plant relative to that on an untreated plant [1] [%]	area of lesion on the treated plant relative to that on an untreated plant [2] [%]	area of lesion on the treated plant relative to that on an untreated plant [3] [%]	control value [4] [%]	area of lesion on the treated plant relative to that on an untreated plant [5] [%]	area of lesion on the treated plant relative to that on an untreated plant [6] [%]	area of lesion on the treated plant relative to that on an untreated plant [7] [%]
Cc1cc(-c2cnn(C(C)C)c2)ccc1SCc1c(C)cccc1-n1nnn(C)c1=O [present compound 8, 1-{3-methyl-2-[2-methyl-4-(1-isopropyl-1H-pyrazol-4-yl)-phenylthiomethyl]-phenyl}-4-methyl-1,4-dihydrotetrazol-5-one]	≤ 30	≤ 30	≤ 30	≥ 60	≤ 30	≤ 30	–
Cc1cc(-c2cc(C)n(C)n2)ccc1SCc1c(C)cccc1-n1nnn(C)c1=O [present compound 6, 1-{3-methyl-2-[2-methyl-4-(1,5-dimethyl-1H-pyrazol-3-yl)-phenylthiomethyl]-phenyl}-4-methyl-1,4-dihydrotetrazol-5-one]	≤ 30	≤ 30	–	–	≤ 30	≤ 30	–
Cc1cnn(-c2ccc(SCc3c(C)cccc3-n3nnn(C)c3=O)c(C)c2)c1 [present compound 14]	≤ 30	≤ 30	≤ 30	–	–	≤ 30	–
Cc1cc(-n2nc(C)c(C)c2C)ccc1SCc1c(C)cccc1-n1nnn(C)c1=O [present compound 4, 1-{3-methyl-2-[2-methyl-4-(3,4,5-trimethyl-pyrazol-1-yl)-phenylthiomethyl]-phenyl}-4-methyl-1,4-dihydrotetrazol-5-one]	≤ 30	≤ 30	≤ 30	–	–	≤ 30	≤ 30
CCn1cc(-c2ccc(SCc3c(C)cccc3-n3nnn(C)c3=O)c(C)c2)cn1 [present compound 9, 1-{3-methyl-2-[2-methyl-4-(1-ethyl-1H-pyrazol-4-yl)-phenylthiomethyl]-phenyl}-4-methyl-1,4-dihydrotetrazol-5-one]	≤ 30	≤ 30	–	–	≤ 30	≤ 30	–
Cc1cc(-n2cccn2)ccc1SCc1c(C)cccc1-n1nnn(C)c1=O [present compound 11, 1-{3-methyl-2-[2-methyl-4-(pyrazol-1-yl)-phenylthiomethyl]-phenyl}-4-methyl-1,4-dihydrotetrazol-5-one]	≤ 30	≤ 30	≤ 30	–	–	≤ 30	≤ 30
Cc1cc(-n2ccc(C(F)(F)F)n2)ccc1SCc1c(C)cccc1-n1nnn(C)c1=O [present compound 15]	≤ 30	≤ 30	≤ 30	–	–	≤ 30	–
Cc1cc(-c2nn(C)c(Cl)c2C)ccc1SCc1c(C)cccc1-n1nnn(C)c1=O [present compound 1, 1-{3-methyl-2-[2-methyl-4-(1,4-dimethyl-5-chloro-1H-pyrazol-3-yl)-phenylthiomethyl]-phenyl}-4-methyl-1,4-dihydrotetrazol-5-one]	≤ 30	≤ 30	≤ 30	–	≤ 30	≤ 30	≤ 30
Cc1ccn(-c2ccc(SCc3c(C)cccc3-n3nnn(C)c3=O)c(C)c2)n1 [present compound 16]	≤ 30	≤ 30	≤ 30	–	–	≤ 30	–
Cc1cc(-c2cnn(CC(C)C)c2)ccc1SCc1c(C)cccc1-n1nnn(C)c1=O [present compound 10, 1-{3-methyl-2-[2-methyl-4-(1-isobutyl-1H-pyrazol-4-yl)-phenylthiomethyl]-phenyl}-4-methyl-1,4-dihydrotetrazol-5-one]	≤ 30	–	≤ 30	–	≤ 30	≤ 30	–
Cc1cc(-n2cccn2)c(C)cc1SCc1c(C)cccc1-n1nnn(C)c1=O [present compound 12, 1-{3-methyl-2-[2,5-dimethyl-4-(pyrazol-1-yl)-phenylthiomethyl]-phenyl}-4-methyl-1,4-dihydrotetrazol-5-one]	≤ 30	≤ 30	≤ 30	–	–	≤ 30	–
CCn1ccc(-c2ccc(SCc3c(C)cccc3-n3nnn(C)c3=O)c(C)c2)n1 [present compound 7, 1-{3-methyl-2-[2-methyl-4-(1-ethyl-1H-pyrazol-3-yl)-phenylthiomethyl]-phenyl}-4-methyl-1,4-dihydrotetrazol-5-one]	≤ 30	≤ 30	≤ 30	–	≤ 30	≤ 30	≤ 30
Cc1cc(-n2ncc(C)c2C)ccc1SCc1c(C)cccc1-n1nnn(C)c1=O [present compound 19]	≤ 30	≤ 30	≤ 30	≥ 60	–	≤ 30	≤ 30
Cc1cccc(-n2nnn(C)c2=O)c1CSc1ccc(-n2nccc2C)cc1Cl [present compound 3, 1-{3-methyl-2-[2-chloro-4-(5-methyl-pyrazol-1-yl)-phenylthiomethyl]-phenyl}-4-methyl-1,4-dihydro tetrazol-5-one]	≤ 30	≤ 30	≤ 30	–	–	≤ 30	–
Cc1cc(-n2ccc(C(C)(C)C)n2)ccc1SCc1c(C)cccc1-n1nnn(C)c1=O [present compound 5, 1-{3-methyl-2-[2-methyl-4-(3-t-butyl-pyrazol-1-yl)-phenylthiomethyl]-phenyl}-4-methyl-1,4-dihydrotetrazol-5-one]	≤ 30	≤ 30	≤ 30	–	–	≤ 30	–
Cc1cc(C)n(-c2ccc(SCc3c(C)cccc3-n3nnn(C)c3=O)c(C)c2)n1 [present compound 2, 1-{3-Methyl-2-[2-Methyl-4-(3,5-Dimethyl-Pyrazol-1-yl)-Phenylthiomethyl]-phenyl}-4-methyl-1,4-dihydrotetrazol-5-one]	≤ 30	≤ 30	≤ 30	–	≤ 30	≤ 30	≤ 30
Cc1cc(-n2cc(C)c(C)n2)ccc1SCc1c(C)cccc1-n1nnn(C)c1=O [present compound 18]	≤ 30	–	≤ 30	≥ 60	–	≤ 30	–
Cc1cc(C)n(-c2cc(C)c(SCc3c(C)cccc3-n3nnn(C)c3=O)cc2C)n1 [present compound 13, 1-{3-methyl-2-[2,5-dimethyl-4-(3,5-dimethyl-pyrazol-1-yl)-phenylthiomethyl]-phenyl}-4-methyl-1,4-dihydrotetrazol-5-one]	≤ 30	≤ 30	≤ 30	–	–	≤ 30	≤ 30
Cc1cc(-n2nccc2C)ccc1SCc1c(C)cccc1-n1nnn(C)c1=O [present compound 17]	≤ 30	–	≤ 30	–	–	≤ 30	–
